Measurements as given in the supplement of paper PMC10338343.
± gives the standard deviation. The list shows a part of the results, in another mix than the full data. Many of these values have a large error.

Tested on: MIWI (PIWIL1) piRISC loaded with Kctd7 piRNA (30 nt)
Assay: pre-steady-state target cleavage rate (min^-1); MIWI and MILI are mouse PIWI proteins and EfPiwi is from a freshwater sponge; tags in brackets are library labels; higher = faster piRNA-guided slicing of the target
Conditions: guide: Kctd7 piRNA 5'p-UGUUAAUCUCUCAGAGAAGGUGACAGUGAU; auxiliary factor: 500 nM mouse GTSF1
Protocol: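 Cleave-'n-Seq: a library of target RNAs (target site embedded in constant flanks, ACAGCATTCCGCGTTAGTGATATCCG... 5' flank; DNA-blocked outside the site) at 0.1 nM was incubated with 1 nM active mouse MILI or MIWI piRISC (synthetic 5'-monophosphorylated piRNA guide) with or without 500 nM mouse GTSF1 at 33 °C for 1 min to 16 h. Uncleaved targets were sequenced and normalised to non-target controls, and the pooled three trials were fitted to a burst-and-steady-state model to give the pre-steady-state cleavage rate (min^-1; k3 is constrained to at most 1e-4). Sequence is the target site only; target names encode pairing extent (gX:gY) and contiguous / 1-mismatch / 2-mismatch / bulge geometry. Fits with R² ≤ 0 are excluded.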

Row | Sequence | pre-steady-state target cleavage rate
1 | UAGUGACACACCUUGACUGAGAGAUUAUGA | 0.000605 ± 0.018
2 | UAGACUGUCACCUUCUCUCUGAGAUUAUGA | 0.00052 ± 0.012
3 | UAGUCUGUCUCCUUCUGUGAGAGAUUAACA | 0.536 ± 0.028
4 | UAGUGACAGACCUUCUCUGAGUGAAUAACA | 0.0014 ± 0.0076
5 | UACACUGUCACCUUCUCUGACUCAUUAUGA | 0.0018 ± 0.0039
6 | UAGACAGUCACCAUCUCUGAGAGAUUAACA | 0.68 ± 0.042
7 | UAGUGUGUCACCUUCUGAGAGAGAUAUUGA | 0.00238 ± 0.0074
8 | UACACUGUCACCUUCUCUGUCAGAUUAUGA | 0.00355 ± 0.0078
9 | UAGUGACAGUGCUUCUCUGAGAGUUUAACA | 0.00896 ± 0.0024
10 | UAGACUGUCACCAUCUCUGAGAGAUUAACA | 0.741 ± 0.052
11 | UAGUCUGUCACCUUCUCACAGAGAUUUUGA | 0.003 ± 0.0049
12 | UAGUGACAGACCUUCUCUGACAGAUUAAGA | 0.00115 ± 0.0075
13 | UAGUGACAGACCUUCUCUGACGAGAUUAACA | 0.00201 ± 0.0044
14 | UAGUGACAGACCAUCUCUCAGAGAUUAACA | 0.00139 ± 0.0074
15 | UACACUGACACCUUCUCUGAGAGAUUUUGA | 0.0697 ± 0.019
16 | UAGUGACAGUCCUUCUGCUGAGAGAUUAACA | 0.000385 ± 0.017
17 | UAGUCUGUCACCUUCUCUGACUGAUAUUGA | 0.000857 ± 0.008
18 | UAGUGACAGUGCUUCUCUGUGAGUUUAACA | 0.00115 ± 0.0062
19 | UAGUGACAGUCCUUCUCUAGAGAGAUUAACA | 0.000681 ± 0.011
20 | UAGUGACUCACCUUCUCUGACUGAUUAAGA | 0.000142 ± 0.028
21 | UAGUCUGUGUGCUUCUCUGAGAGAUUAUGA | 0.000271 ± 0.018
22 | UAGUCUGUCAACUUCUCUGAGAGAUUAACA | 0.593 ± 0.024
23 | UAGUGACAGUGGAAGAGACUCUCAUUAACU [g2:g7:cont:t1U] | 0.000135 ± 0.029
24 | UAGUGAGUCACCUUCUCUCUGAGAUUAAGA | 0.00175 ± 0.0049

Row | Sequence | pre-steady-state target cleavage rate
25 | UACACUGUCACCUUCUCAGAGAGAAUAACA | 0.076 ± 0.021
26 | AUCACUGUCAACUUCUCUGAGAGAUUAACA | 0.793 ± 0.045
27 | AUCACAGUCACGUUCUCUGAGAGAUUAACA | 0.737 ± 0.026
28 | UAGUGACACACCUUCUCUGAGUCUAAUUGA [g10:g22:cont:t1A] | 0.000462 ± 0.014
29 | UAGUCUGUCACGAACUCUGAGAGAUUAAGA | 0.000824 ± 0.0069
30 | UAGUGACUCACCAAGUCUGAGAGAUUAAGA | 0.000493 ± 0.0091
31 | UAGUGACAGUGCUUCUCUGAGGAUUAACA | 0.000231 ± 0.008
32 | UAGUGUGACACCUUCUCUGAGAGAUUAUGA | 0.0202 ± 0.0074
33 | UAGUGACAGACCUUCUCUGAGUCUUUUUGA | 0.000663 ± 0.014
34 | UAGUGACUCACCUACUCUGAGAGAUAUUGA | 0.000944 ± 0.0069
35 | UAGUGUGUCACCUUCUCACAGAGAUUUUGA | 0.00194 ± 0.0065
36 | UAGUGACACACGUUCUCUGAGAGAUAUUGA | 0.00031 ± 0.018
37 | UAGUGACAGUGGAAGAGAGCGAGAUUAACA | 0.000206 ± 0.024
38 | AUCACUGUCAGCUUCUCUGAGAGAUUAACA | 0.802 ± 0.044
39 | UAGACUCAGACCUUCUCUGAGAGAUAUUGA | 0.00205 ± 0.0038
40 | UAGUGACAGACCUUCUUCUGAGAGAUUAACA | 0.00151 ± 0.0068
41 | UAGUGACAGUGCUUCUCUGAGAGAUAUUCA | 0.000115 ± 0.015
42 | UAGUGACUCACCUUCUCUCAGAGAUUUUGA | 0.000582 ± 0.014
43 | UAGUGACAGACCUUCUCUGAGACAUUAAGA | 0.00104 ± 0.0096
44 | UAGACUGUCACCUUGUCUGAGAGAUUAUCA | 0.643 ± 0.1
45 | UAGUGACAGUCCUUCUCUGAGAGAUUACA | 0.00199 ± 0.0038
46 | UAGUGACAGUCCUACUCUCAGAGAUUAACA | 0.000104 ± 0.019
47 | UUCACCUGUCACCUUCUCUGAGAGAUUAACA | 0.73 ± 0.033
48 | UACACUGUCUGGUUCUCUGAGAGAUAUUGA | 0.000476 ± 0.016

Random excerpt: 5 records from the list, in no set order.
Row | Sequence | pre-steady-state target cleavage rate
33 | UAGUGACAGACCUUCUCUGAGUCUUUUUGA | 0.000663 ± 0.014
45 | UAGUGACAGUCCUUCUCUGAGAGAUUACA | 0.00199 ± 0.0038
26 | AUCACUGUCAACUUCUCUGAGAGAUUAACA | 0.793 ± 0.045
42 | UAGUGACUCACCUUCUCUCAGAGAUUUUGA | 0.000582 ± 0.014
35 | UAGUGUGUCACCUUCUCACAGAGAUUUUGA | 0.00194 ± 0.0065

Following part.

Row | Sequence | pre-steady-state target cleavage rate
49 | UAGUGACAGUCCUUCUCUCAGAGUUUAACA | 0.00172 ± 0.004
50 | UAGUGACACACCUUCUCUGACGAGAUUAACA | 0.00152 ± 0.005
51 | UACACUGUCACCUUCUCUGAGUCAUUAUGA | 0.00293 ± 0.0042
52 | UAGUGACAGACCUUGUCUGACAGAUUAACA | 0.00217 ± 0.0056
53 | UAGUGACAGUCCAAGUCUGAGAGAUUAAGA | 0.000196 ± 0.038
54 | UAGUGACUCACCUUCUCUGAGUGAUUAUGA | 0.00131 ± 0.0049
55 | UAGUGACAGUCCUUCUCUGAGACAUAAACA | 0.000125 ± 0.025
56 | UAGUCUGUGACCUUCUCUGAGAGAUAUUGA | 0.00311 ± 0.0039
57 | UAGUGUGUCACCUUCUCUGUCUGAUUAACA | 0.000922 ± 0.011
58 | UAGACUGUCACCUUCUCUGAGACAUUAUGA | 0.00121 ± 0.0048
59 | UAGUGACAGUGCUUCGUCUGAGAGAUUAACA | 0.00121 ± 0.0066
60 | UAGUGUGUCACCUUCUCUGUCAGAUUUUGA | 0.000593 ± 0.022
61 | UAGUGACAGACCAAGUCUGAGAGAUUAUGA | 0.000595 ± 0.017
62 | AACACUGUCACCUUCUCUGAGAGAUUAUGA | 0.101 ± 0.021
63 | UAGUGACAGUGCUUCUGUGAGAGUUUAACA | 0.00298 ± 0.0033
64 | UAGUGACAGUGGAACUCUGAGAGCUUAACA | 0.000102 ± 0.044
65 | UACACUGUCACUUCUCUGAGAGAUUAACA | 0.577 ± 0.038
66 | UAGUGACACACCUUCACUGAGACAUUAACA | 0.17 ± 0.029
67 | UAGUGAGUCACCUUCUCUGAGACAUUAAGA | 0.00377 ± 0.005
68 | UACACUGUCACCUUCACUGAGAGUUUAACA | 0.356 ± 0.081
69 | UAGUGACAGUCCUUCUCUGAGAGAUUAUGA | 0.00211 ± 0.0048
70 | UAGUGACAGUGGAAGAGACAGAGAUUAACC [g2:g11:cont:t1C] | 0.000233 ± 0.031
71 | UAGUGACAGACCAUCUCUGAGAGAUUAUGA | 0.000967 ± 0.0063
